Measurements published in patent US11065220B2, “Anti-pathogenic therapeutic compositions” (Wintermute Biomedical, Inc., priority 2017, dated 2021).
At least one compound was matched to its structure with a doubt left. Some entries repeat one wording, which the source may state once for all of them.

Test system: MRSA
Test: Iodonitrotetrazolium chloride assay of MRSA growth, various anthraquinones with L-Arg and UCA
Assay type: cell-based, Staphylococcus aureus
Conditions: for inhibition of MRSA growth: iodonitrotetrazolium chloride assay, FIG. 20
Protocol: Although the WT13-13 example compound described herein uses cassic acid (rhein) as the anthraquinones, other anthraquinones may be used. This is illustrated in FIG. 20, for example. In FIG. 20, antibiotic effects of other anthraquinones were tested against MRSA. As shown, identical ratios of L-Arg and UCA were combined with various anthraquinones, including cassic acid (Rhein), aloe-emodin (AloeE), and chrysophanol (Chyrs.). Formulations were tested for MRSA growth using an iodonitrotetrazolium chloride assay. Each compound was MRSA was assayed in media control and subtracted from the values taken from the wells containing MRSA to control for colorimetric alterations. Each MRSA well contained 100,000 CFUs in 100 microliters.
As shown in FIG. 20 discussed above, in addition to cassic acid, other anthraquinones were tested for activity using an iodonitrotetrazolium chloride assay. Each anthraquinone was assayed for activity against one or more pathogen. In FIG. 20 activity was tested against MRSA growth.

Structure (SMILES) | relative effectiveness among anthraquinones (combined with identical ratios of L-Arg and UCA, other anthraquinones in lower amount) | inhibition of MRSA growth
O=C(O)c1cc(O)c2c(c1)C(=O)c1cccc(O)c1C2=O [cassic acid] | more effective than aloe-emodin (AloeE), and chrysophanol (Chyrs.) | Inhibition of growth
Cc1cc(O)c2c(c1)C(=O)c1cccc(O)c1C2=O [chrysophanol] | – | Inhibition of growth
O=C1c2cccc(O)c2C(=O)c2c(O)cc(CO)cc21 [emodin (aloe emodin), aloe-emodin] | – | Inhibition of growth
